Measured values reported in patent US8748423B2, “Compositions and methods for the prevention and treatment of cancer” (Kinex Pharmaceuticals, LLC, priority 2010, dated 2014).
For at least one compound, name, drawing or mass did not settle the structure.

Test system: GL261 glioma
Experiment: orthotropic GL261 glioma model, immune-competent mice
Format: in vivo, C57BL/6 mice
Conditions: Temodar in this mouse model for comparison
Excerpt: FIGS. 4A-C are a series of graphs showing the survival of C57BL6 mice with intracerebral GL261 glioma implants. Mice received intracerebral implants of 1×10^5 GL261 cells by stereotactic injection at 2 mm lateral, 1 mm anterior to bregma at 3 mm depth. After 4 days mice began indicated regimen of oral Compound 76. […] Compound 76 extended median survival from 21 to 29 days (range). n=10. […] Compound 76 extended median survival >100 days (range), with up to 60% of drug treated mice experiencing complete tumor regression, n=10. Long term survivors were confirmed tumor free by high field MRI in FIG. 6. […] See high field MRI in FIG. 6
Compound 76 was also evaluated in the orthotropic GL261 glioma model in immune-competent, syngeneic C57BL/6 mice. Mice implanted intracerebrally with 1×10^5 GL261 cells treated with vehicle alone (saline) have a median survival time (MeST) of 21 days (range 18-28). Mice treated by oral Compound 76 (30 mg/kg, b.i.d.) have a MeST of 30.5 days ranging 23-32 days. In contrast, when Compound 76 is given orally at (30 mg/kg, s.i.d.) the MeST increases to over 120 days, with more than 60% of the treatment group still alive 12 months later (p<0.0001). […]
Compound 76 was evaluated in the orthotropic GL261 glioma model in immune-competent, syngeneic C57BL/6 mice. […]

Cn1nnc2c(C(N)=O)ncn2c1=O [Temodar, temozolomide, reference compound]
complete tumor regression: does not cause complete tumor regression
